In patent US5574009A, “Method of stimulating myelination of cells” (Trustees of the University Of Pennsylvania, priority 1994, dated 1996):
At least one peptide structure holds a part that was inferred or is arguable (an end, a ring closure or a residue). Where no end group is shown, it is not given here.

Test system: neonatal rat optic nerve cultures
Experiment: Stimulation of GalC expression in neonatal rat optic nerve glial cultures
Assay type: cell-based
Settings: PND-1 optic nerve cultures; VL SH at concentrations as low as 50 μg/ml

Sequence: KPGKTNKLLIYSGSTLQ [VL peptide, K P G K T N K L L I Y S G S T L Q]
- induction of GalC appearance by peptides: did not induce GalC expression
